{"sequences": {"note": "By UniProt entry, the sequences of proteins in these tests, tags left out.", "UniProt Q0JBA9, entry or part of it": "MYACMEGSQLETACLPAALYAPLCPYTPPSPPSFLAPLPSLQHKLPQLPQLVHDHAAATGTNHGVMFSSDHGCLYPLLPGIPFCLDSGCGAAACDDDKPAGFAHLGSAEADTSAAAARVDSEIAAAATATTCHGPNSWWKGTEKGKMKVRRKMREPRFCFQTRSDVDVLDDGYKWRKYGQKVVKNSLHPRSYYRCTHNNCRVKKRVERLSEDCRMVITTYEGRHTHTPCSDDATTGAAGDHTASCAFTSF"}, "source": "paper PMC7819943", "about": "“Rice protein-binding microarrays: a tool to detect cis-acting elements near promoter regions in rice”", "note": "This is one part of the list."}
{"target": "OsWRKY34 (Oryza sativa, UniProt Q0JBA9 1-250)", "assay": "protein-binding microarray (RPBM); PBS, 2% BSA, 51.3 ng/ul salmon testes DNA, 50 uM zinc acetate, 200 nM TF, 25 C, 1 h; high values mean tight binding", "settings": "protein: recombinant; tags: N-terminal polyhistidine and DsRed monomer fusion (pET32a); label: CyDye5-dUTP incorporated in the synthesized complementary strand; 3' TTTTT single-stranded linker to array surface; dsDNA, one strand shown", "how_it_was_run": "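Ni–NTA purification followed expression in E. coli BL21-CodonPlus of transcription factors fused N-terminally to a polyhistidine tag and DsRed. At 200 nM in PBS with 2% BSA, salmon testes DNA and 50 µM zinc acetate, the protein was incubated for 1 h at 25 °C with a custom Agilent array that had been primer-extended with Cy5-dUTP and blocked with 2% BSA. After washing, the array was read on an Axon 4000B scanner. The binding signal is per-feature fluorescence intensity in arbitrary units.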"}
{"sequence": "CCAATCCTACCTTGTCTTTGTTCTTTCTTCCTCCGACGACCGGAGTCACCTAGTGCAG", "binding signal": "9580 fluorescence intensity (a.u.)"}
{"sequence": "CGTCGCCTCGCCTCGTCACGGCCGCCTCCGCCATCGCCTCCGGAGTCACCTAGTGCAG", "binding signal": "9550 fluorescence intensity (a.u.)"}
{"sequence": "TTCCAGCTGCTTCAAAACTGACCCATCGTGTAGTATGACTCGGAGTCACCTAGTGCAG", "binding signal": "8900 fluorescence intensity (a.u.)"}
{"sequence": "ATGGACCAATTCCGTCTGATATTGGTCGTCTTGCTGAGCTCGGAGTCACCTAGTGCAG", "binding signal": "8520 fluorescence intensity (a.u.)"}
{"sequence": "CACGTTTTATAATGTGCCATCGACTTTTGCTTAACTTCTACGGAGTCACCTAGTGCAG", "binding signal": "8300 fluorescence intensity (a.u.)"}
{"sequence": "TCCCAACCTATCTTCCTCGTTTTCCACGCGCAGGCTTTTCCGGAGTCACCTAGTGCAG", "binding signal": "9320 fluorescence intensity (a.u.)"}
{"sequence": "ATCTCGCGTATACCCTGGTTCCTGGTTTCATCAATCCCCACGGAGTCACCTAGTGCAG", "binding signal": "10600 fluorescence intensity (a.u.)"}
{"sequence": "TGGGTATGTGATATGTGTGCGTGTGCTTGTTCCGTGTAATCGGAGTCACCTAGTGCAG", "binding signal": "8550 fluorescence intensity (a.u.)"}
{"sequence": "AGCGCTTTGCTGCCGCCGTCGTCTTGCCTTCACCGCTAAGCGGAGTCACCTAGTGCAG", "binding signal": "10100 fluorescence intensity (a.u.)"}
{"sequence": "CATCTTTATTCTGTTTCTTGATGTGCTTCCTATGTATCACCGGAGTCACCTAGTGCAG", "binding signal": "13300 fluorescence intensity (a.u.)"}
{"sequence": "AGCTACACAATTTGAAACATACACGCAATCCTTTGTCTCACGGAGTCACCTAGTGCAG", "binding signal": "9840 fluorescence intensity (a.u.)"}
{"sequence": "GTTGGTGGTAGTGGATGGTGTTTCTTTTTTATTCCATTTGCGGAGTCACCTAGTGCAG", "binding signal": "12200 fluorescence intensity (a.u.)"}
{"sequence": "GCATTTTCTGTCCGTATCCAAGTCGTTTTCTGCGTAAGCACGGAGTCACCTAGTGCAG", "binding signal": "8760 fluorescence intensity (a.u.)"}
{"sequence": "TCTCCCGTTGTCTTGTCTTCTCTTCGCACCCTAAGATTTCCGGAGTCACCTAGTGCAG", "binding signal": "13900 fluorescence intensity (a.u.)"}
{"sequence": "TCTCTAATCTATTGCCTCGTTTTTCTCTATAGACTATCTCCGGAGTCACCTAGTGCAG", "binding signal": "9650 fluorescence intensity (a.u.)"}
{"sequence": "TCCTCCAATTCAAATGGCCCTTATATAGTTGTAGAATCTTCGGAGTCACCTAGTGCAG", "binding signal": "8050 fluorescence intensity (a.u.)"}
{"sequence": "AACTTGGTGTATGCACAATCACACACCTTGCCATCTAATTCGGAGTCACCTAGTGCAG", "binding signal": "8720 fluorescence intensity (a.u.)"}
{"sequence": "ACTTGTCCTTGATCCTGCCCCACTTCGGATTGTCAATCGACGGAGTCACCTAGTGCAG", "binding signal": "8730 fluorescence intensity (a.u.)"}
{"sequence": "TATTTTTAAAAAAGTCAACGGCGTCTTGTGGGATGGAGGGCGGAGTCACCTAGTGCAG", "binding signal": "21300 fluorescence intensity (a.u.)"}
{"sequence": "TATTGCTAACGTACATGCACCCAATTTTGGTCATTACTATCGGAGTCACCTAGTGCAG", "binding signal": "8340 fluorescence intensity (a.u.)"}
{"sequence": "ATTAAAAAGTCAACGGTGTCAAACATTTTGAAATGGAGGGCGGAGTCACCTAGTGCAG", "binding signal": "10300 fluorescence intensity (a.u.)"}
{"sequence": "GTTGTATGTATCACAGCTCTTTCATAACTCGTACCATTTTCGGAGTCACCTAGTGCAG", "binding signal": "11700 fluorescence intensity (a.u.)"}
{"sequence": "CTACGCTTTCCCACTTCTACTCGCTCTAACTTCTACTCGACGGAGTCACCTAGTGCAG", "binding signal": "10700 fluorescence intensity (a.u.)"}
{"sequence": "GGACCCACCCGGCCATCCACGTGACTAGTTGTACATTTTCCGGAGTCACCTAGTGCAG", "binding signal": "14200 fluorescence intensity (a.u.)"}
{"sequence": "GTTAGTGGTTGATGGTAGTATGAGGAGTTTGTTGTTAACACGGAGTCACCTAGTGCAG", "binding signal": "8670 fluorescence intensity (a.u.)"}
{"sequence": "TAAGTTTTTGTTTGCCACGTTTAACCACTCGTCTTATTCACGGAGTCACCTAGTGCAG", "binding signal": "14600 fluorescence intensity (a.u.)"}
{"sequence": "CCTTCTGTCTCCACCCTCATCCAGCGATCCAAAGCCCAACCGGAGTCACCTAGTGCAG", "binding signal": "8820 fluorescence intensity (a.u.)"}
{"sequence": "CTTATCTCATTTTATCTCGGTTTTTGTTAACTTGTTTTTTCGGAGTCACCTAGTGCAG", "binding signal": "18200 fluorescence intensity (a.u.)"}
{"sequence": "ACTTTATAAAGGGTCCCACAGTGTTTCCCATCTCCTCTGTCGGAGTCACCTAGTGCAG", "binding signal": "8210 fluorescence intensity (a.u.)"}
{"sequence": "AATATGGACTGCATGTGTTTGTGATCCCTTTCTTCTCATGCGGAGTCACCTAGTGCAG", "binding signal": "9200 fluorescence intensity (a.u.)"}
{"sequence": "ATCGTCCCCAAATACATTTCACCGATTTGACTTGAATACACGGAGTCACCTAGTGCAG", "binding signal": "8080 fluorescence intensity (a.u.)"}
{"sequence": "TTTCCCGAAATTTCGCTTCTATCCGATTTTTTTTCGCAATCGGAGTCACCTAGTGCAG", "binding signal": "10900 fluorescence intensity (a.u.)"}
{"sequence": "GCCTTCCGCGCCCGCTTCCGCGCAACCCACCGGGCGCCATCGGAGTCACCTAGTGCAG", "binding signal": "8610 fluorescence intensity (a.u.)"}
{"sequence": "CACTCTCTCCGGAAGGCCCAAACCGCAGCTCAACGCTTCTCGGAGTCACCTAGTGCAG", "binding signal": "8670 fluorescence intensity (a.u.)"}
{"sequence": "GCACCCCTGTTTTCTCAGCGATCATGGCTGTAATACTGAACGGAGTCACCTAGTGCAG", "binding signal": "8070 fluorescence intensity (a.u.)"}
{"sequence": "GTGTTTGCCTATGATTTTTGTAGCTACCATGACTGAAAAACGGAGTCACCTAGTGCAG", "binding signal": "8970 fluorescence intensity (a.u.)"}
{"sequence": "GCGCCGTTGTTCTTCCTGCCACATCCATCCTGGTGAGCACCGGAGTCACCTAGTGCAG", "binding signal": "12700 fluorescence intensity (a.u.)"}
{"sequence": "CGAGGGAGAGGTGCGGTGGGGCGTAATTAGGCGGAGAGATCGGAGTCACCTAGTGCAG", "binding signal": "9460 fluorescence intensity (a.u.)"}
{"sequence": "ATTGTATACTGCTGAGTTGTTTTATCACTGTATTTATTGCCGGAGTCACCTAGTGCAG", "binding signal": "11300 fluorescence intensity (a.u.)"}
{"sequence": "CTCAAGTATATCCTTTCTTTAACTTTATTAGGTTGAACTTCGGAGTCACCTAGTGCAG", "binding signal": "8250 fluorescence intensity (a.u.)"}
{"sequence": "TCCATATGCCACCACTCAGCTCCTGATTCCCCGAATTATACGGAGTCACCTAGTGCAG", "binding signal": "8740 fluorescence intensity (a.u.)"}
{"sequence": "AGGTACAGTCGGGGCGGGTGCAGGGGTACCAACTCGGAGTCGGAGTCACCTAGTGCAG", "binding signal": "13900 fluorescence intensity (a.u.)"}
{"sequence": "CTTATCCCAATTTTAAGCTTCTCCAGACTTTGGGCGCGCTCGGAGTCACCTAGTGCAG", "binding signal": "8540 fluorescence intensity (a.u.)"}
{"sequence": "GCTCGCTGGCCGGTTCACCCACATCCTCAGCCGTCCATCACGGAGTCACCTAGTGCAG", "binding signal": "9860 fluorescence intensity (a.u.)"}
{"sequence": "TCGGAGACCACCTCCACCTCCACCTCCTCCACCACCTTCGCGGAGTCACCTAGTGCAG", "binding signal": "8190 fluorescence intensity (a.u.)"}
{"sequence": "CCTATGCTTCCGCCGCATTCTGGTGAGCATCCTTACGCAACGGAGTCACCTAGTGCAG", "binding signal": "8620 fluorescence intensity (a.u.)"}
{"sequence": "CTTCCCTTCCCACCGCTGCAACCCACCATTATTCTCCTCCCGGAGTCACCTAGTGCAG", "binding signal": "8570 fluorescence intensity (a.u.)"}
{"sequence": "AATGATGGGAGGCTATATCAACTGTCAAACTGGCTAATTTCGGAGTCACCTAGTGCAG", "binding signal": "9220 fluorescence intensity (a.u.)"}
{"sequence": "ATTTTCGCAGCCTCGCTCCACGCCGTTCCGTTTCCTCATCCGGAGTCACCTAGTGCAG", "binding signal": "9540 fluorescence intensity (a.u.)"}
{"sequence": "ACAATTTTTTTTTCCAAAACCTTAGACACGTGTATCTGTCCGGAGTCACCTAGTGCAG", "binding signal": "10200 fluorescence intensity (a.u.)"}
{"sequence": "AATTTCGCCTGCACCCACACCTGATACCACACCACCACTCCGGAGTCACCTAGTGCAG", "binding signal": "8040 fluorescence intensity (a.u.)"}
{"sequence": "GTCGCCTCATCGCTTGTTCTTGCTGTAATTTTGTTCTTGACGGAGTCACCTAGTGCAG", "binding signal": "14400 fluorescence intensity (a.u.)"}
{"sequence": "TTTCACCTTGTAGTCTAACCACTAATTTTTTTTGAACGACCGGAGTCACCTAGTGCAG", "binding signal": "8270 fluorescence intensity (a.u.)"}
{"sequence": "AGGATGATGAGTTGTTCCATTTCCTGTAGTATCCCTGTTTCGGAGTCACCTAGTGCAG", "binding signal": "8560 fluorescence intensity (a.u.)"}
